These results are taken from the supplement of paper PMC12889115.

This is one part of the list. Values are raw readings; no control value is given beside them.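 First-pass screen: polymyxin B was added at a level that permeabilizes the Salmonella outer membrane while sparing the inner membrane. DMSO wells, with and without polymyxin B, defined maximum growth. Because plates differed from one another, each plate's data were ranked separately and the compounds with the lowest OD600 were carried forward as hits.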

The assay deals with Salmonella enterica serovar Typhimurium SL1344. In words: bacterial growth OD600 after 18 h with compound and polymyxin B; higher = more bacterial growth (less inhibition). Particulars: 50 µM, Mueller-Hinton broth.

`C=Cc1ccc(C(=O)N2CCC(Cc3ccc(OC)cc3)(C(=O)OCC)CC2)cc1`: the “bacterial growth OD600” value (polymyxin B 1 µg/mL) amounted to 0.486.
As for `O=C(COc1ccc(N2CCN(c3ccccn3)CC2)nn1)NCCCn1ccc2ccccc21`, the “bacterial growth OD600” value (polymyxin B 0.75 µg/mL) stood at 0.757.
Consider `COC(=O)[C@@H]1CCCN1C(=O)Cc1ccc(N2CCC(NCCSc3nncn3C)CC2)cc1`, for which, where the note is “polymyxin B 0.75 µg/mL”, the “bacterial growth OD600” value amounted to 0.883.
The same measure, in the same setting: next, `COc1ccc(CC2(CCC(=O)N3CCCC3c3nc4cc(F)ccc4[nH]3)CCC(=O)N2)c(F)c1` (configuration not stated): 0.865; `CCC1CN(Cc2cccnc2)Cc2cc(OC)ccc2O1` (configuration not stated): 0.922; `COc1ccc2[nH]c(CCN(C)C(=O)CC3(c4ccccc4OC)CC(=O)N(C)C3=O)nc2c1` (configuration not stated): 0.984.
On the same count and under the same terms, the result for `COc1cccc(-c2cc3c(c(OC)c2)OCCN(CC2CCCCC2)C3)n1` reads 0.884.
Consider `CN(Cc1n[nH]c2c1CCCCC2)C(=O)CC1(c2ccc(-c3ccccc3)cc2)CC(=O)N(C)C1=O` (configuration not stated), for which, for the setting “polymyxin B 0.75 µg/mL”, the “bacterial growth OD600” value was -0.002.
With `CC(C)Cc1cc(C(=O)NC2CCCN(c3ncccn3)C2)[nH]n1` (configuration not stated), the “bacterial growth OD600” value (polymyxin B 1 µg/mL) amounted to 0.87.
With `O=C(NC1CC1)C1CCCN(C2CCN(CC3CCCC3)CC2)C1` (configuration not stated), the “bacterial growth OD600” value (polymyxin B 0.75 µg/mL) came out at 0.789.
With `Cc1c(CNCc2cccnc2Oc2ccccc2F)cnn1C`, the “bacterial growth OD600” value (polymyxin B 0.75 µg/mL) is 0.835.
Same read-out and setting: next, `COCc1nc2cc(NC(=O)Cc3ccccc3)cc(C(=O)NCCCOc3cccnc3)c2n1C`: 0.807; `CC(Cc1cccs1)NC(=O)C1CC(Cc2cccc(Cl)c2)=NO1` (configuration not stated): 0.82.
In the case of `CCC1(CCC(=O)N(C)Cc2ccc(Oc3ccccc3)cc2)CCC(=O)N1` (configuration not stated), under “polymyxin B 0.75 µg/mL”, the “bacterial growth OD600” value amounted to 0.843.
Still for that read-out and setting: next, `O=C(CCN1CCCO1)N1CCCC(CCc2ccccc2F)C1` (configuration not stated): 0.768; `Cc1noc(C)c1CCCNC(=O)c1ccc(N2CCCC(O)C2)nc1` (configuration not stated): 0.798; `CCN1CCC(C(=O)N2CCCC(CCc3ccccc3C)C2)CC1` (configuration not stated): 0.82.
The same measure, in the same setting: the result for `O=C(Nc1ccc(-c2cccc(F)c2)cc1)C1CCCN(Cc2nccs2)C1` (configuration not stated) reads 0.013.
Regarding `CN(Cc1cc(-c2ccccc2)[nH]n1)C(=O)c1cn(Cc2ccccc2Cl)nn1`, the “bacterial growth OD600” value (polymyxin B 1 µg/mL) came out at 0.01.
On to `CCOC(=O)CNC(=O)NC1CC(=O)N(C2CCCCCC2)C1` (configuration not stated), for which, for the setting “polymyxin B 1 µg/mL”, the “bacterial growth OD600” value is 0.979.
Regarding `COCCCN1C(=O)CC(CC(=O)N2CC3CCCC2C3)(c2ccccc2OC)C1=O` (configuration not stated), under “polymyxin B 0.75 µg/mL”, the “bacterial growth OD600” value was determined as 0.834.
With `O=C(NCc1cccnc1-n1cnc2ccccc21)c1ccoc1`, under “polymyxin B 1 µg/mL”, the “bacterial growth OD600” value turned out to be 0.904.
`CN1CCCC(CCc2ccccc2F)C1` (configuration not stated): the “bacterial growth OD600” value (polymyxin B 0.75 µg/mL) amounted to 0.805.
As to `C=CCCC(=O)NCC1Cc2cccc(-c3ncccn3)c2O1` (configuration not stated), the “bacterial growth OD600” value (polymyxin B 0.75 µg/mL) came out at 0.897.
As to `COc1ccc(NC(=O)CCC2CCCN(C(=O)CN3CCCC3=O)C2)cc1Cl` (configuration not stated), for the setting “polymyxin B 1 µg/mL”, the “bacterial growth OD600” value stood at 1.1.
Consider `c1cc(CN2CCc3[nH]nc(-c4ccc5c(c4)OCO5)c3C2)cs1`, for which the “bacterial growth OD600” value (polymyxin B 0.75 µg/mL) turned out to be 0.779.
For `Cc1c(C(C)NC(=O)c2coc(COc3cccc(F)c3)n2)cnn1C` (configuration not stated), the “bacterial growth OD600” value (polymyxin B 1 µg/mL) is 0.965.
On to `O=C1OCCCN1CCNc1ccc(-c2nc(-c3ccccc3F)no2)cn1`, for which the “bacterial growth OD600” value (polymyxin B 1 µg/mL) amounted to 0.678.
Consider `Cc1ccccc1CCC1CCCN(C(=O)c2ocnc2C)C1` (configuration not stated), for which the “bacterial growth OD600” value (polymyxin B 0.75 µg/mL) was 0.501.
Consider `CN(C(=O)c1ccco1)C(Cc1ccccc1Cl)C1CCN(Cc2ccc3c(c2)CCO3)CC1` (configuration not stated), for which the “bacterial growth OD600” value (polymyxin B 0.75 µg/mL) is 0.799.
`CCN(Cc1nccn1C)C(=O)c1ccc(NCc2ccccc2)nc1`: the “bacterial growth OD600” value (polymyxin B 0.75 µg/mL) turned out to be 0.964.
As for `O=C(NCC[C@@H]1C[C@@H]2C=C[C@H]1C2)c1cccc(OC2CCN(C(=O)C3CC3)CC2)c1`, under “polymyxin B 1 µg/mL”, the “bacterial growth OD600” value is 0.018.
